In assay [1] the target is T. thermophilus PilN (C-terminus immediately after the predicted TM helix) (T. thermophilus) (UniProt Q8VRL7). As to the kind of experiment: two-hybrid; Y2H by co-transformation of pGAD and pGBD fusions into AH109; serial dilutions on SD-His and SD-Ade, and β-galactosidase activity (ONPG).
Assay [2] concerns the target T. thermophilus PilW (C-terminus immediately after the predicted TM helix) (T. thermophilus) (UniProt Q8VRL5). The description is as above.

By UniProt entry, the sequences of proteins in these tests, tags left out. Where a name states a change or a piece, a line headed by the entry shows the natural chain unless it says otherwise.
UniProt Q8VRL7: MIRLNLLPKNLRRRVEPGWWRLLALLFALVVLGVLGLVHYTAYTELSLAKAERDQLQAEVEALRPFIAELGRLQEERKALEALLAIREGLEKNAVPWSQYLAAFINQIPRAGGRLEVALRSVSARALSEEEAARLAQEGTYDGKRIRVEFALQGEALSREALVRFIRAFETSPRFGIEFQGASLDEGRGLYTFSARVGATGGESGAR
UniProt Q8VRL6: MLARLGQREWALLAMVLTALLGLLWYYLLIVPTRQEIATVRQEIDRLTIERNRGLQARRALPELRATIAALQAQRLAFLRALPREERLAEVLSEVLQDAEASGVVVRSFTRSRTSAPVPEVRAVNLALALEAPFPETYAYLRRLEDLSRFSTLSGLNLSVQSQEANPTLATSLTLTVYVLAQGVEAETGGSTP

These are yes or no findings as the source states them, for the method shown. A result given as binding can be weak or reduced; the word gives no strength.

“T. thermophilus PilO (C-terminus immediately after the predicted TM helix) (from UniProt Q8VRL6) (domain or fragment)”: the binding result in assay [1] and in assay [2] was “binds” throughout.

Values taken from publication PMC3724824.
